Results are given in words; binding and its absence hold for the method and conditions named. Binding seen in cells or lysates may run through a third protein. Some entries that bind do so weakly or less than the wild type.
How the values were obtained:
Assay in all cases: co-IP; GFP-Trap MA magnetic beads on lysates of transfected NSC-34 cells (20 mM Tris-HCl, 150 mM NaCl, 2 mM EDTA, 1% NP40, pH 7.4), 500 ug lysate, overnight at 4 °C; immunoblotting for 53BP1
TDP-43 A315T-EGFP = TDP-43 A315T-EGFP (UniProt Q13148)
TDP-43 Q331K-EGFP = TDP-43 Q331K-EGFP (UniProt Q13148)
TDP-43 wildtype-EGFP = TDP-43 wildtype-EGFP (UniProt Q13148)

Amino acid sequences for entries named in this document (tags omitted).
UniProt P70399: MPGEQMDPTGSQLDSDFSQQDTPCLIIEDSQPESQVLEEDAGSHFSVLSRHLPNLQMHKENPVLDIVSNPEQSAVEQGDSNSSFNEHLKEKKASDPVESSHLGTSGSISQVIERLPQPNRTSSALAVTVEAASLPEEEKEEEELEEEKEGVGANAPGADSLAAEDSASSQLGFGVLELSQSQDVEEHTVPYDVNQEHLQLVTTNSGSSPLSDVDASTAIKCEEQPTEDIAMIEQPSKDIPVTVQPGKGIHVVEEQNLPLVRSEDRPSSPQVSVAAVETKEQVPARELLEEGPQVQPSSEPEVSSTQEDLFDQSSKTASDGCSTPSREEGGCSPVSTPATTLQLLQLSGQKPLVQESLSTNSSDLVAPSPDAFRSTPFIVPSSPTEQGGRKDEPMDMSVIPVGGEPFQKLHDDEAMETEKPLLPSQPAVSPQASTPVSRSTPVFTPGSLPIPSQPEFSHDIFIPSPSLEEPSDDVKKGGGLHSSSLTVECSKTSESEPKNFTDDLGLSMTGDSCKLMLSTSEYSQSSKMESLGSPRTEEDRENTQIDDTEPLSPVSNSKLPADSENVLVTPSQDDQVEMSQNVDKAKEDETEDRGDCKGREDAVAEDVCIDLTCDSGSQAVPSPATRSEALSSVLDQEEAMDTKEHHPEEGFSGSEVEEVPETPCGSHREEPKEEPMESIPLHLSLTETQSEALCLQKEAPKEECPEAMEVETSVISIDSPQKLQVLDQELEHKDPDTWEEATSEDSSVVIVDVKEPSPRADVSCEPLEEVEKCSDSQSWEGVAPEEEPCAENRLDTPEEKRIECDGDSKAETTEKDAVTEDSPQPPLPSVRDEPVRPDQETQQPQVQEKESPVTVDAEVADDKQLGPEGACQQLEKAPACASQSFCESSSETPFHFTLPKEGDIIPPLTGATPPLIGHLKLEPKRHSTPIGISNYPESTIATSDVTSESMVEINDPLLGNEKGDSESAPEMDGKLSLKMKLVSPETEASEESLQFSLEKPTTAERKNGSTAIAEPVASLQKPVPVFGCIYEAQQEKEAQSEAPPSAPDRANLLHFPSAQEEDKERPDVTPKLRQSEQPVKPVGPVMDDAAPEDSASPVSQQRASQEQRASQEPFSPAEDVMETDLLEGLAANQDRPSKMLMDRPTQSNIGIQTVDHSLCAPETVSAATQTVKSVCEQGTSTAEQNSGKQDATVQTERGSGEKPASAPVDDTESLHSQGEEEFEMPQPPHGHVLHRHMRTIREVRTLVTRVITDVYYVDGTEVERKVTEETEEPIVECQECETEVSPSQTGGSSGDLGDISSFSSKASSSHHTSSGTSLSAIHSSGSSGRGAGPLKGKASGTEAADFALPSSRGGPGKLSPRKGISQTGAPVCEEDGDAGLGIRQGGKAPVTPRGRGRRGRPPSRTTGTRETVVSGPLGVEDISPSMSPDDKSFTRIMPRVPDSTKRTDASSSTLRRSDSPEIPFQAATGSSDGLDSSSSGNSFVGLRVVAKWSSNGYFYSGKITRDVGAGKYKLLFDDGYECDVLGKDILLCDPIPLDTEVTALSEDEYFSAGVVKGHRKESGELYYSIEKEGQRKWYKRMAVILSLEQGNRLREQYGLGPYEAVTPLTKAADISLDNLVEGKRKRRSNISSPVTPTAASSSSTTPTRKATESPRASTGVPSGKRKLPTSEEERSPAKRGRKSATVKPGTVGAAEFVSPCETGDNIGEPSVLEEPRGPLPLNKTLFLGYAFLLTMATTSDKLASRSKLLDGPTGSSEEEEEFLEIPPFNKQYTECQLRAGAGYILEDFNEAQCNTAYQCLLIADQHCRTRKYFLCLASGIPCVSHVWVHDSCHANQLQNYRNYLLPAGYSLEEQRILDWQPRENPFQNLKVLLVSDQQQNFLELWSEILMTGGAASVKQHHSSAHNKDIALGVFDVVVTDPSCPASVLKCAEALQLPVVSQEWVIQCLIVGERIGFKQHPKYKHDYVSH

Measured: binding

p53-binding protein 1 (from UniProt P70399 1-1969)
binds: all assays above

From paper PMC7488163
